Consider 2 molecules from article PMC8795376.

These are yes or no findings as the source states them, for the method shown. Binding can be weak; no strength is given. For part of these data: In cells and extracts the contact can be indirect. For part of these data: Where a sequence is shown, tags or fusion partners need not be part of it.

For assay [1], the target named is HA-HBc (HBV core protein, genotype C) (hepatitis B virus genotype C). The assay is described as follows: co-IP; HepG2 cells expressing viperin truncated mutants and HA-HBc or GFP-GAL9; lysates precipitated with anti-HA or anti-GFP antibodies, immunoblotting. For orientation: Immunoblotting shows a protein as a band on a membrane.
In assay [2] the target is NanoLuc (NL)-conjugated HBc (HBV core protein, derived from HBV genotype C) (hepatitis B virus genotype C). The assay is described as follows: FRET or BRET; NanoBRET in living HepG2 cells expressing NL-HBc and the indicated HaloTag proteins (Fig. 1c, Fig. 3a). On the technique in general: BRET reads energy transfer from a luciferase to a nearby fluorophore.
Assay [3] addresses HBc, recombinant (hepatitis B virus (genotype not stated)). Briefly: pull-down; in vitro pull-down with recombinant HBc and GAL9 incubated with viperin; anti-HBc antibody; 37 °C, 1 h, Tris buffer pH 7.5; both purified.

B1: HaloTag-fused viperin (protein, UniProt Q8WXG1 1-361)
chain: MWVLTPAAFAGKLLSVFRQPLSSLWRSLVPLFCWLRATFWLLATKRRKQQLVLRGPDETKEEEEDPPLPTTPTSVNYHFTRQCNYKCGFCFHTAKTSFVLPLEEAKRGLLLLKEAGMEKINFSGGEPFLQDRGEYLGKLVRFCKVELRLPSVSIVSNGSLIRERWFQNYGEYLDILAISCDSFDEEVNVLIGRGQGKKNHVENLQKLRRWCRDYRVAFKINSVINRFNVEEDMTEQIKALNPVRWKVFQCLLIEGENCGEDALREAERFVIGDEEFERFLERHKEVSCLVPESNQKMKDSYLILDEYMRFLNCRKGRKDPSKSILDVGVEEAIKFSGFDEKMFLKRGGKYIWSKADLKLDW
Take B1: the binding result in assay [1] and in assay [2] was “binds” throughout.

B2: viperin, recombinant (protein, UniProt Q8WXG1 1-361)
chain: MWVLTPAAFAGKLLSVFRQPLSSLWRSLVPLFCWLRATFWLLATKRRKQQLVLRGPDETKEEEEDPPLPTTPTSVNYHFTRQCNYKCGFCFHTAKTSFVLPLEEAKRGLLLLKEAGMEKINFSGGEPFLQDRGEYLGKLVRFCKVELRLPSVSIVSNGSLIRERWFQNYGEYLDILAISCDSFDEEVNVLIGRGQGKKNHVENLQKLRRWCRDYRVAFKINSVINRFNVEEDMTEQIKALNPVRWKVFQCLLIEGENCGEDALREAERFVIGDEEFERFLERHKEVSCLVPESNQKMKDSYLILDEYMRFLNCRKGRKDPSKSILDVGVEEAIKFSGFDEKMFLKRGGKYIWSKADLKLDW
For B2, the binding result in assay [3] is on record as “binds”.
